Here are results for 1 compound from patent US20250041252A1, “POWDERS FOR INHALATION AND PRODUCTION PROCESS THEREOF” (UNIVERSITA' DEGLI STUDI DI PARMA, priority 2021, published 2025).

For this data set the following is noted: PBS pH 7.4, 37° C.

Turning to `CCN(CC)CC(=O)Nc1c(C)cccc1C` [Lidocaine powder raw material, lidocaine], the “time to complete dissolution” value (about 8 mg lidocaine) was determined as 15 min. Under “about 8 mg of LANE, end of test”, this compound displayed a Dissolved lidocaine of 7.9 ± 0.4 mg.
